These are yes or no findings as the source states them, for the method shown. Some results given as binding are weak or reduced against the parent protein; the word gives no strength. Ends that are not written are not given here.
Target: immunizing peptide … (SEQ ID NO: 27)
Assay: PEPSCAN ELISA on overlapping 7 to 14-mer linear and CLIPS peptides based on SEQ ID NO:27

Row | Binder | binding
1 | antibody 17G8.72 (antibody, V domains shown, Monoclonal antibody against the EDA domain of fibronectin-EDA; also called 17G8.7VL) VH: DVQLQESGPDLVKPSQSLSLTCTVTGYSIASGYSWHWIRQFPGNKLEWMGYIHFSGSANYNPSLKSRISITRDTSKNQFFLQLNSVTTEDTATYYCASEARGYFDYWGQGTTLTVSS VL: DVLMTQTPLSLPVSLGDQASISCRSSQSIVRSNGNTYLTWYLQKPGQSPKLLIYKVSNRFSGVPDRFSGSGSGTDFTLKISRVEAEDLGVYFCFQGSHVPPTFGSGTKLEIKR | binds
2 | antibody 33E3.10 (antibody, V domains shown) VH: EVKLVESGGGLVKPGGSLKLSCAASGFTFSNSAMTWVRQTPEKRLEWVASISGGGTTYYPDSVKGRFTISRDNARNILYLQMSSLRSEDTAIYYCARSHYWGQGTTLTVSS VL: DIVMTQSQKFMSTSIGDRVSVTCKASQNVVTNVAWYQQKPGQSPKALIYSASYRYSGVPDRFTGSGSGTDFTLTISNVQSEDLAEYFCQQYNSYPYTFGGGTKLEIKR | binds
